From US20250101107A1
No constants are given. Whether binding was seen depends on the method and setting.

Sequences of proteins named here, by UniProt entry; tags and fusion partners are left off. A change or cut given only in a name is not applied to a line headed by its entry.
UniProt P01732: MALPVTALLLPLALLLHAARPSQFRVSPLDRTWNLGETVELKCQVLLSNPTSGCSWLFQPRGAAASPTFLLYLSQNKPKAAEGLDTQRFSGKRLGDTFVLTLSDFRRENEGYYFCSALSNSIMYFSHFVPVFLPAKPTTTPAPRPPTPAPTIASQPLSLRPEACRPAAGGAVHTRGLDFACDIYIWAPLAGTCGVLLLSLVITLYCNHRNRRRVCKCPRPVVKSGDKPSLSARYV
UniProt P10966: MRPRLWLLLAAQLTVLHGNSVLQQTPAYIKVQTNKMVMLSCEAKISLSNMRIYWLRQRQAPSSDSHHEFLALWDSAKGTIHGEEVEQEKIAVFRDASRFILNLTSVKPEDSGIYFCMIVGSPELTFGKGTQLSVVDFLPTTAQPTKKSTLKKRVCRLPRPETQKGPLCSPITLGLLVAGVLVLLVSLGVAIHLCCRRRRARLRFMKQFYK

Key:
[1] = target: T1, human CD8 on human T cells (human) (UniProt P01732+P10966); test: flow cytometry, 0.2 nM antibody on human CD8+ T cells, anti-human IgG detection (MFI AF647)
[2] = target: T1, human CD8 on human T cells (human); test: flow cytometry on human CD8+ T cells, titration; titration 50 nM to 3.2 pM, human CD8+ T cells (Table 11)
[3] = target: T1, human CD8 on human T cells (human); test: flow cytometry on human CD8+ T cells; single-point screen at 0.2 nM antibody, human CD8+ T cells (FIG. 24)

- binding [1]: no binding (tested: 0.2 nM)
- binding [2]: no binding (tested: up to 50 nM)
- binding [3]: no binding (tested: 0.2 nM)
B1: humanized 02A01-VH5-VK4 (antibody, V domains shown)
VH: EVQLVQSGAEVKKPGATLKISCKASGYTFTDYYMHWVQQAPGKGLEWIGLVNPNNGGNIYNQNFKGRATLTVDTSTSTAYMELSSLRSEDTSVYYCGRVPLYTSHGMDYWGQGTLVTVSS
VL: EIVLTQSPATLSVSPGERATISCRASESVDSYDINSMHWYQQKPGQAPRLLIYDASNRATGIPARFSGSGSRTDFTLTISSVEPEDFATYYCQQSNEDPLTFGQGTKLEIK
